{"source": "patent US20160000844A1", "about": "“A COMPOSITION FOR IMPROVING JOINT HEALTH, OR FOR PREVENTING AND TREATING RHEUMATOID ARTHRITIS AND OSTEOARTHRITIS” (priority 2013, published 2016)", "type_in_all_cases": "in vivo, rat", "key": {"mechanical allodynia": {"test_system": "mechanical allodynia", "test": "Mechanical allodynia after zymosan, paw withdrawal threshold", "conditions": "versus vehicle-administered group"}, "mechanical hyperalgesia": {"test_system": "mechanical hyperalgesia", "test": "Mechanical hyperalgesia after zymosan, paw withdrawal threshold", "conditions": "with the passage of time"}, "thermal hyperalgesia": {"test_system": "thermal hyperalgesia", "test": "Thermal hyperalgesia after zymosan, paw withdrawal latency", "conditions": "thermal stimulus, versus vehicle-administered group"}}, "note": "At least one structure is not confirmed: it was looked up by name or label, or the drawing left a doubt."}
{"smiles": "Cc1ccc(-c2cc(C(F)(F)F)nn2-c2ccc(S(N)(=O)=O)cc2)cc1", "note": "[celecoxib]", "values": [{"measurement": "paw withdrawal threshold", "setting": "mechanical allodynia", "value": "higher"}, {"measurement": "paw withdrawal threshold, course over time", "setting": "mechanical hyperalgesia", "value": "did not change"}, {"measurement": "paw withdrawal latency", "setting": "thermal hyperalgesia", "value": "higher"}]}
